Record: PubChem BioAssay AID493246 (Drosophila RNAi Screening Center, 2011)

Screen: 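Genome-wide search for dsRNAs that reduce cell number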 (primary screen)
Cells: Drosophila Kc and S2R+ cells
Reagent: long dsRNA against Drosophila genes
Measured: 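Raw, unnormalised count of remaining cells in each well; per-plate z-scores of cell number underlie the calls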
Reading the numbers: Kc cell number and S2R+ cell number: higher = more cells remaining
Hit rule: 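Counted as a hit if cell number falls by a z-score of at least 3 within its plate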
The deposit covers about 21,000 reagents; below is a random part of those that have a named target and a result. Over the whole deposit, 429 (2%) were called active. 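Values are raw and not normalised between plates; calls rest on per-plate z-scores that were not deposited.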 Unmarked entries are inactive. A plus sign joins genes that one reagent is predicted to hit. No sequences are given here. Not given: the amount of reagent, the time to read-out.

Inx2 [DRSC18783] → Kc cell number, rep 1: 6.01e5; S2R+ cell number, rep 1: 9.35e5
ND6 (retired record) [DRSC21271] → Kc cell number, rep 1: 1.48e6; Kc cell number, rep 2: 1.54e6; S2R+ cell number, rep 1: 1.07e6; S2R+ cell number, rep 2: 1.19e6
CG12268 [DRSC14491] → Kc cell number, rep 1: 1.70e6; Kc cell number, rep 2: 1.58e6; S2R+ cell number, rep 1: 9.28e5; S2R+ cell number, rep 2: 1.03e6
CG10340 [DRSC14232] → Kc cell number, rep 1: 1.44e6; Kc cell number, rep 2: 1.58e6; S2R+ cell number, rep 1: 1.12e6; S2R+ cell number, rep 2: 1.23e6
Acp53Ea [DRSC05916] → Kc cell number, rep 1: 1.57e6; Kc cell number, rep 2: 1.62e6; S2R+ cell number, rep 1: 1.23e6; S2R+ cell number, rep 2: 1.34e6

Single entries from the entries so far:
For “Kc cell number, rep 1”, CG12268 [DRSC14491] shows 1.70e6
Result for CG10340 [DRSC14232] under “S2R+ cell number, rep 1”: 1.12e6

The listing continues:
LManIII [DRSC03221] → Kc cell number, rep 1: 1.64e6; Kc cell number, rep 2: 1.58e6; S2R+ cell number, rep 1: 1.17e6; S2R+ cell number, rep 2: 1.25e6
Dhx15 [DRSC06036] → Kc cell number, rep 1: 1.44e6; Kc cell number, rep 2: 1.56e6; S2R+ cell number, rep 1: 1.16e6; S2R+ cell number, rep 2: 1.24e6
CG14695 [DRSC14918] → Kc cell number, rep 1: 1.75e6; Kc cell number, rep 2: 1.77e6; S2R+ cell number, rep 1: 1.27e6; S2R+ cell number, rep 2: 1.37e6
thetaTry [DRSC07705] → Kc cell number, rep 1: 1.50e6; Kc cell number, rep 2: 1.53e6; S2R+ cell number, rep 1: 1.28e6; S2R+ cell number, rep 2: 1.35e6
CG15147 [DRSC02447] → Kc cell number, rep 1: 1.70e6; Kc cell number, rep 2: 1.74e6; S2R+ cell number, rep 1: 1.05e6; S2R+ cell number, rep 2: 1.22e6
CG15147 [DRSC02448] → Kc cell number, rep 1: 1.85e6; Kc cell number, rep 2: 1.88e6; S2R+ cell number, rep 1: 1.45e6; S2R+ cell number, rep 2: 1.58e6
MnM [DRSC08423] → Kc cell number, rep 1: 1.49e6; Kc cell number, rep 2: 1.48e6; S2R+ cell number, rep 1: 1.05e6; S2R+ cell number, rep 2: 1.21e6
Dyro [DRSC10598] → Kc cell number, rep 1: 1.41e6; Kc cell number, rep 2: 1.31e6; S2R+ cell number, rep 1: 1.18e6; S2R+ cell number, rep 2: 1.26e6
CG42821 + CG42822 [DRSC13231] → Kc cell number, rep 1: 1.37e6; Kc cell number, rep 2: 1.49e6; S2R+ cell number, rep 1: 1.04e6; S2R+ cell number, rep 2: 1.15e6
CG42821 + CG42822 [DRSC13232] → Kc cell number, rep 1: 1.44e6; Kc cell number, rep 2: 1.45e6; S2R+ cell number, rep 1: 1.02e6; S2R+ cell number, rep 2: 1.10e6
